Data on 2 compounds can be found in US11510852B2 (THE ROYAL INSTITUTION FOR THE ADVANCEMENT OF …, priority 2019, dated 2022).

A short description of the data set: Two-step staining procedure, visual shade assessment of composite resin. To be noted: molecule used for first priming step before adding Philoxine B and Brilliant Blue.

Take `CCOC(=O)CC(C)C` [Ethyl Isovalerate, ethyl isovalerate]: the “visual change in shade of composite resin” value is recorded as “no changes were observed”.

As for `CCOC(=O)C(C)O` (centres unmarked) [Ethyl Lactate, ethyl lactate], the “visual change in shade of composite resin” value was “no changes were observed”.
